These are yes or no findings as the source states them, for the method shown. In cells and extracts the contact can be indirect. Some results given as binding are weak or reduced against the parent protein; the word gives no strength.
Columns and labels:
Assay in all cases: co-IP
[1] = target: PIAS1 (UniProt O75925)
[2] = target: E3 ligase CHIP (human (endogenous in SH-SY5Y)) (UniProt Q9UNE7)
[3] = target: E3 ligase CHIP, rat brain (rat (endogenous in SD rat brain, SN and STR)) (UniProt A6HD62)

The chains behind the UniProt entries cited, without tags or fusion partners.
UniProt O75925: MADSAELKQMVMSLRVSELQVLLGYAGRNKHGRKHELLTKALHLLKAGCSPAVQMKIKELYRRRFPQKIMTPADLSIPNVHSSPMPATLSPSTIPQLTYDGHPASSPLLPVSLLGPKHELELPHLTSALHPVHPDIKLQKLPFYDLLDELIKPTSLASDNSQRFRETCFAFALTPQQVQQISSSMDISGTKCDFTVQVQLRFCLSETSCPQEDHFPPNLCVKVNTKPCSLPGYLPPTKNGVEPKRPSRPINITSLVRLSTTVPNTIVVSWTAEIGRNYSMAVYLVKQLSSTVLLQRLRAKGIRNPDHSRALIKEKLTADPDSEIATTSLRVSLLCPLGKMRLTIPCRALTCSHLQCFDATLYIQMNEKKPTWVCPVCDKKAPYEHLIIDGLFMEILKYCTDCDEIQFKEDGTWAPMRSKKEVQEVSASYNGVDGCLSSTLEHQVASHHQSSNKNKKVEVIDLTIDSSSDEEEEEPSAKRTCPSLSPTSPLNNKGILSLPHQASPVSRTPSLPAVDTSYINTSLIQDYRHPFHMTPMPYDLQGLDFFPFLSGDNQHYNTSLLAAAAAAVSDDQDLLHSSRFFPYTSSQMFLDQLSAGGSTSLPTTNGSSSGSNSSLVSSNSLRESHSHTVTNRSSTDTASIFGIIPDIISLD
UniProt Q9UNE7: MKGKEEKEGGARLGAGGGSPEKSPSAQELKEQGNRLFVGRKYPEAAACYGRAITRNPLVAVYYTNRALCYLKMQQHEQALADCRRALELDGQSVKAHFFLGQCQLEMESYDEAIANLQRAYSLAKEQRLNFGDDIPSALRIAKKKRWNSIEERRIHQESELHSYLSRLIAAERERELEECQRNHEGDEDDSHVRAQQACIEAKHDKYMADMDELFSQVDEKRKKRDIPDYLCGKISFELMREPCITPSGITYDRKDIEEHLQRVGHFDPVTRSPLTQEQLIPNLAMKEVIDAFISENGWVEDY
UniProt A6HD62: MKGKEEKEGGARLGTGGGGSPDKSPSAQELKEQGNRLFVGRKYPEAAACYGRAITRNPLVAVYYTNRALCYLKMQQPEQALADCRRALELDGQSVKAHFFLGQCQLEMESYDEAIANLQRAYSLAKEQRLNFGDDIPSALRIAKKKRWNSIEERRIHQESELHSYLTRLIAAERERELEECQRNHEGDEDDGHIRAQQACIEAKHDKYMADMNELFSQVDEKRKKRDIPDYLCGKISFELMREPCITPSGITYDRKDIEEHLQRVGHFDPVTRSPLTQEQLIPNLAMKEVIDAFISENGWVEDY
UniProt P21796: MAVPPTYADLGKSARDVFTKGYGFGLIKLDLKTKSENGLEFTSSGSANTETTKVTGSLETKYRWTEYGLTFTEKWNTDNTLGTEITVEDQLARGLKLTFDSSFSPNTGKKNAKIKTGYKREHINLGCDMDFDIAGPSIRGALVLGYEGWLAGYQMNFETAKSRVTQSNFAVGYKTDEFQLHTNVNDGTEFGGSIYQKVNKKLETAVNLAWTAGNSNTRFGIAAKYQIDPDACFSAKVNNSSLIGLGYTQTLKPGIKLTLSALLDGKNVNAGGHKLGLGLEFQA
UniProt Q9Z2L0: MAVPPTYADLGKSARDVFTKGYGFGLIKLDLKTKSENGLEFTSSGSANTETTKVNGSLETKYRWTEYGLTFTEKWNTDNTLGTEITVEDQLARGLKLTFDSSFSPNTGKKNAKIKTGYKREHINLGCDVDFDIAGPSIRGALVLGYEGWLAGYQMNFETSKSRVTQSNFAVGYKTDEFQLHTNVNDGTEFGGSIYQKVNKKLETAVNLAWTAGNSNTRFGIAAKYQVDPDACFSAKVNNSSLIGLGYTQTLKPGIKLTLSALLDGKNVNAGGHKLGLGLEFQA

For “VDAC1 (lysate of the experiment not stated; data not shown) (from UniProt P21796 1-283)”, the binding [1] was “binds weakly”.
In the case of “Voltage-dependent anion channel 1 (VDAC1) (from UniProt P21796 1-283)”, the binding [2] is reported as “binds”.
With “Voltage-dependent anion channel 1 (VDAC1), rat brain (from UniProt Q9Z2L0 1-283)” the binding [3] was “binds”.
